{"source": "the supplement of paper PMC8728848", "binders": {"B1": {"name": "Epf (Streptococcus pyogenes) (protein)", "chain": "GDHGPEFNGVMVVKAAEAEELPDDLMNFKGTWEVSADGSSGRFFSKGATDSYVFHLIPAKDVKKPGWREHNEVKDSYIKIDKQSIAARYKTSTTAPYSVAFKVNTKSLIKDHDYKITFEQGQIASGITVDYRIGSAFNKTTDDSFKISDESKYASNVKIEGEEQGFKQREQGDKTISFRTLKEGPMSLVLLSKVEKKPQGDLDVEFKNLKIIDVTNPSQLDKGVAYVGNKNVQLTLKSDDGRTNFEGDEISLFNSRGELLQTVTVTKDQQNPISITLSEDQAKSLKNKEKLKVSIKQKQSKKTSKDFFFEVGIDPKVEAKQKEKLLELDKVKKQIEDSINGDAWLPEKPVDLQGDHGLSAWSHPQFEK"}}, "assay_in_all_cases": "glycan array binding signal (z-score within array); higher = stronger binding", "conditions_in_all_cases": "glycan notation: IUPAC condensed, linker removed", "key": {"[1]": {"target": "GalNAc(b1-4)GlcNAc(b1-2)Man(a1-3)[GalNAc(b1-4)GlcNAc(b1-2)Man(a1-6)]Man(b1-4)GlcNAc(b1-4)GlcNAc", "method_in_brief": "(§1)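 Negative Z-scores can be read as non-binding. The Z-score is calculated within each array and then averaged across arrays of one protein sequence at different concentrations or buffers and across linkers. Arrays, 3228 in all, were curated from the Consortium for Functional Glycomics database and kept only where the protein sequence was available.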"}, "[2]": {"target": "GalNAc(b1-4)GlcNAc(b1-3)GalNAc(b1-4)GlcNAc", "method_in_brief": "as §1"}, "GalNAc(b1-4)GlcNAc6S": {"target": "GalNAc(b1-4)GlcNAc6S", "method_in_brief": "as §1"}, "GalNAc(b1-6)GalNAc": {"target": "GalNAc(b1-6)GalNAc", "method_in_brief": "as §1"}, "GalNAc3S(b1-4)GlcNAc": {"target": "GalNAc3S(b1-4)GlcNAc", "method_in_brief": "as §1"}, "GalNAc3S(b1-4)GlcNAc3S": {"target": "GalNAc3S(b1-4)GlcNAc3S", "method_in_brief": "as §1"}, "[3]": {"target": "GalNAc3S(b1-4)[Fuc(a1-3)]GlcNAc", "method_in_brief": "as §1"}, "GalNAc4S6S(b1-4)GlcNAc": {"target": "GalNAc4S6S(b1-4)GlcNAc", "method_in_brief": "as §1"}, "GalNAc6S(b1-4)GlcNAc": {"target": "GalNAc6S(b1-4)GlcNAc", "method_in_brief": "as §1"}, "Glc(a1-4)Glc": {"target": "Glc(a1-4)Glc", "method_in_brief": "as §1"}, "[4]": {"target": "Glc(a1-4)Glc(a1-4)Glc(a1-4)Glc", "method_in_brief": "as §1"}, "Glc(a1-6)Glc(a1-6)Glc": {"target": "Glc(a1-6)Glc(a1-6)Glc", "method_in_brief": "as §1"}, "[5]": {"target": "Glc(a1-6)Glc(a1-6)Glc(a1-6)Glc", "method_in_brief": "as §1"}, "Glc(b1-4)Glc": {"target": "Glc(b1-4)Glc", "method_in_brief": "as §1"}, "Glc(b1-6)Glc": {"target": "Glc(b1-6)Glc", "method_in_brief": "as §1"}, "GlcA(b1-3)Gal": {"target": "GlcA(b1-3)Gal", "method_in_brief": "as §1"}, "GlcA(b1-3)GlcNAc": {"target": "GlcA(b1-3)GlcNAc", "method_in_brief": "as §1"}, "GlcA(b1-6)Gal": {"target": "GlcA(b1-6)Gal", "method_in_brief": "as §1"}, "[6]": {"target": "GlcA3S(b1-3)Gal(b1-4)GlcNAc(b1-2)Man", "method_in_brief": "as §1"}, "[7]": {"target": "GlcA3S(b1-3)Gal(b1-4)GlcNAc(b1-3)Gal(b1-4)Glc", "method_in_brief": "as §1"}, "[8]": {"target": "GlcNAc(a1-3)Gal(b1-4)GlcNAc", "method_in_brief": "as §1"}, "[9]": {"target": "GlcNAc(a1-4)Gal(b1-3)GlcNAc", "method_in_brief": "as §1"}, "[10]": {"target": "GlcNAc(a1-4)Gal(b1-4)GalNAc", "method_in_brief": "as §1"}, "[11]": {"target": "GlcNAc(a1-4)Gal(b1-4)GlcNAc", "method_in_brief": "as §1"}, "[12]": {"target": "GlcNAc(a1-4)Gal(b1-4)GlcNAc(b1-3)Gal(b1-4)Glc", "method_in_brief": "as §1"}, "[13]": {"target": "GlcNAc(a1-4)Gal(b1-4)GlcNAc(b1-3)Gal(b1-4)GlcNAc", "method_in_brief": "as §1"}, "[14]": {"target": "GlcNAc(a1-4)Gal(b1-4)GlcNAc(b1-3)Gal(b1-4)GlcNAc(b1-3)Gal(b1-4)GlcNAc", "method_in_brief": "as §1"}, "[15]": {"target": "GlcNAc(a1-4)Gal(b1-4)GlcNAc(b1-3)Gal(b1-4)[Fuc(a1-3)]GlcNAc(b1-3)Gal(b1-4)[Fuc(a1-3)]GlcNAc", "method_in_brief": "as §1"}, "[16]": {"target": "GlcNAc(a1-6)Gal(b1-4)GlcNAc", "method_in_brief": "as §1"}, "[17]": {"target": "GlcNAc(b1-2)Gal(b1-3)GalNAc", "method_in_brief": "as §1"}, "[18]": {"target": "GlcNAc(b1-2)Man(a1-3)[GlcNAc(b1-2)Man(a1-6)]Man(b1-4)GlcNAc(b1-4)GlcNAc", "method_in_brief": "as §1"}, "[19]": {"target": "GlcNAc(b1-2)Man(a1-3)[GlcNAc(b1-2)Man(a1-6)]Man(b1-4)GlcNAc(b1-4)[Fuc(a1-6)]GlcNAc", "method_in_brief": "as §1"}, "[20]": {"target": "GlcNAc(b1-2)Man(a1-3)[GlcNAc(b1-4)][GlcNAc(b1-2)Man(a1-6)]Man(b1-4)GlcNAc(b1-4)GlcNAc", "method_in_brief": "as §1"}, "[21]": {"target": "GlcNAc(b1-2)Man(a1-3)[GlcNAc(b1-4)][GlcNAc(b1-2)Man(a1-6)]Man(b1-4)GlcNAc(b1-4)[Fuc(a1-6)]GlcNAc", "method_in_brief": "as §1"}, "[22]": {"target": "GlcNAc(b1-2)[GlcNAc(b1-4)]Man(a1-3)[GlcNAc(b1-2)Man(a1-6)]Man(b1-4)GlcNAc(b1-4)GlcNAc", "method_in_brief": "as §1"}, "[23]": {"target": "GlcNAc(b1-2)[GlcNAc(b1-4)]Man(a1-3)[GlcNAc(b1-4)][GlcNAc(b1-2)Man(a1-6)]Man(b1-4)GlcNAc(b1-4)GlcNAc", "method_in_brief": "as §1"}, "[24]": {"target": "GlcNAc(b1-2)[GlcNAc(b1-4)]Man(a1-3)[GlcNAc(b1-4)][GlcNAc(b1-2)[GlcNAc(b1-6)]Man(a1-6)]Man(b1-4)GlcNAc(b1-4)GlcNAc", "method_in_brief": "as §1"}}, "note": "This is one part of the list.", "data": [{"binder": "B1", "values": [{"measurement": "glycan array binding signal (z-score)", "setting": "[1]", "value": 0.105}, {"measurement": "glycan array binding signal (z-score)", "setting": "[2]", "value": -0.662}, {"measurement": "glycan array binding signal (z-score)", "setting": "GalNAc(b1-4)GlcNAc6S", "value": -1.36}, {"measurement": "glycan array binding signal (z-score)", "setting": "GalNAc(b1-6)GalNAc", "value": 1.99}, {"measurement": "glycan array binding signal (z-score)", "setting": "GalNAc3S(b1-4)GlcNAc", "value": 0.725}, {"measurement": "glycan array binding signal (z-score)", "setting": "GalNAc3S(b1-4)GlcNAc3S", "value": -1.41}, {"measurement": "glycan array binding signal (z-score)", "setting": "[3]", "value": 0.629}, {"measurement": "glycan array binding signal (z-score)", "setting": "GalNAc4S6S(b1-4)GlcNAc", "value": 0.618}, {"measurement": "glycan array binding signal (z-score)", "setting": "GalNAc6S(b1-4)GlcNAc", "value": -0.071}, {"measurement": "glycan array binding signal (z-score)", "setting": "Glc(a1-4)Glc", "value": -0.862}, {"measurement": "glycan array binding signal (z-score)", "setting": "[4]", "value": -0.119}, {"measurement": "glycan array binding signal (z-score)", "setting": "Glc(a1-6)Glc(a1-6)Glc", "value": -0.575}, {"measurement": "glycan array binding signal (z-score)", "setting": "[5]", "value": 0}, {"measurement": "glycan array binding signal (z-score)", "setting": "Glc(b1-4)Glc", "value": 0.621}, {"measurement": "glycan array binding signal (z-score)", "setting": "Glc(b1-6)Glc", "value": -0.212}, {"measurement": "glycan array binding signal (z-score)", "setting": "GlcA(b1-3)Gal", "value": -0.114}, {"measurement": "glycan array binding signal (z-score)", "setting": "GlcA(b1-3)GlcNAc", "value": -0.509}, {"measurement": "glycan array binding signal (z-score)", "setting": "GlcA(b1-6)Gal", "value": 0.072}, {"measurement": "glycan array binding signal (z-score)", "setting": "[6]", "value": -0.251}, {"measurement": "glycan array binding signal (z-score)", "setting": "[7]", "value": -1.41}, {"measurement": "glycan array binding signal (z-score)", "setting": "[8]", "value": 0.808}, {"measurement": "glycan array binding signal (z-score)", "setting": "[9]", "value": -0.513}, {"measurement": "glycan array binding signal (z-score)", "setting": "[10]", "value": 0.374}, {"measurement": "glycan array binding signal (z-score)", "setting": "[11]", "value": 0.691}, {"measurement": "glycan array binding signal (z-score)", "setting": "[12]", "value": -0.09}, {"measurement": "glycan array binding signal (z-score)", "setting": "[13]", "value": -0.942}, {"measurement": "glycan array binding signal (z-score)", "setting": "[14]", "value": -1.16}, {"measurement": "glycan array binding signal (z-score)", "setting": "[15]", "value": 0.834}, {"measurement": "glycan array binding signal (z-score)", "setting": "[16]", "value": 0.095}, {"measurement": "glycan array binding signal (z-score)", "setting": "[17]", "value": -0.413}, {"measurement": "glycan array binding signal (z-score)", "setting": "[18]", "value": 0.436}, {"measurement": "glycan array binding signal (z-score)", "setting": "[19]", "value": -0.521}, {"measurement": "glycan array binding signal (z-score)", "setting": "[20]", "value": 0.722}, {"measurement": "glycan array binding signal (z-score)", "setting": "[21]", "value": 0.795}, {"measurement": "glycan array binding signal (z-score)", "setting": "[22]", "value": -0.419}, {"measurement": "glycan array binding signal (z-score)", "setting": "[23]", "value": 0.679}, {"measurement": "glycan array binding signal (z-score)", "setting": "[24]", "value": -1.04}]}]}
